Article doi:10.1101/205914
Results are given in words; binding and its absence hold for the method and conditions named. Some entries that bind do so weakly or less than the wild type. For some of these results: Tags and fused reporters may be left off the sequences shown.

Chains of the proteins cited; added tags and fusions are not shown. Lines headed by an entry give the natural chain unless they say otherwise; changes in a name come on top.
UniProt P32908: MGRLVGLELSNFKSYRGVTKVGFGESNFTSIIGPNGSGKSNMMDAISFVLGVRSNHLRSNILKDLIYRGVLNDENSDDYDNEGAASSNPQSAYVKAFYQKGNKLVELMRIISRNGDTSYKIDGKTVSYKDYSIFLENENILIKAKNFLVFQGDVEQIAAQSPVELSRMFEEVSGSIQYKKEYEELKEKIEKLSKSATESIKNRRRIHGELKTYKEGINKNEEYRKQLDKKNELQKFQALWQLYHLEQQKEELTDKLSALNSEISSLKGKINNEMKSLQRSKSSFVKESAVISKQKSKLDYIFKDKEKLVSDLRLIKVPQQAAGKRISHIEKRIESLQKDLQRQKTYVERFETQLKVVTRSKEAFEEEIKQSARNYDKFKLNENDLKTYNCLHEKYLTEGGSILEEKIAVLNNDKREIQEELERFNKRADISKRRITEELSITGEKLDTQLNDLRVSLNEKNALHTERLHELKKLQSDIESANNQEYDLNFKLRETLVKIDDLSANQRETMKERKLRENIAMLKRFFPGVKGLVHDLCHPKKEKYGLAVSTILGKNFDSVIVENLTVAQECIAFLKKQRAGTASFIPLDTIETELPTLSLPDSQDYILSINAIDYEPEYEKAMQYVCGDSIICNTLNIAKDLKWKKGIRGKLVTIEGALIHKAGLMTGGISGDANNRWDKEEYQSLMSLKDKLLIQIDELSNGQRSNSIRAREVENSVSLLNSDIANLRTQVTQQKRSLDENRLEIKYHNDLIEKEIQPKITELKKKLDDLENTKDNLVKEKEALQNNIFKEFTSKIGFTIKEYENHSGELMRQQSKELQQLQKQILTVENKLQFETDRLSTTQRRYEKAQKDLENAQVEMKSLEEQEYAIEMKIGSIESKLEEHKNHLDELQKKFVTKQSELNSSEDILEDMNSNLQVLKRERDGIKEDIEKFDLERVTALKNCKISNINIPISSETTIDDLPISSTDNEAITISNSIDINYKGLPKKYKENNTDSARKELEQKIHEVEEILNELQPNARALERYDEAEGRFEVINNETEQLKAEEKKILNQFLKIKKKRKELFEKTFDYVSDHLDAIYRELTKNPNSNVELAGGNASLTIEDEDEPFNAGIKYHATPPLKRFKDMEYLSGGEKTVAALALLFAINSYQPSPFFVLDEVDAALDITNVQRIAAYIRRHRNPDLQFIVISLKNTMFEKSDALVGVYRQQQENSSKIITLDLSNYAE
UniProt P47037: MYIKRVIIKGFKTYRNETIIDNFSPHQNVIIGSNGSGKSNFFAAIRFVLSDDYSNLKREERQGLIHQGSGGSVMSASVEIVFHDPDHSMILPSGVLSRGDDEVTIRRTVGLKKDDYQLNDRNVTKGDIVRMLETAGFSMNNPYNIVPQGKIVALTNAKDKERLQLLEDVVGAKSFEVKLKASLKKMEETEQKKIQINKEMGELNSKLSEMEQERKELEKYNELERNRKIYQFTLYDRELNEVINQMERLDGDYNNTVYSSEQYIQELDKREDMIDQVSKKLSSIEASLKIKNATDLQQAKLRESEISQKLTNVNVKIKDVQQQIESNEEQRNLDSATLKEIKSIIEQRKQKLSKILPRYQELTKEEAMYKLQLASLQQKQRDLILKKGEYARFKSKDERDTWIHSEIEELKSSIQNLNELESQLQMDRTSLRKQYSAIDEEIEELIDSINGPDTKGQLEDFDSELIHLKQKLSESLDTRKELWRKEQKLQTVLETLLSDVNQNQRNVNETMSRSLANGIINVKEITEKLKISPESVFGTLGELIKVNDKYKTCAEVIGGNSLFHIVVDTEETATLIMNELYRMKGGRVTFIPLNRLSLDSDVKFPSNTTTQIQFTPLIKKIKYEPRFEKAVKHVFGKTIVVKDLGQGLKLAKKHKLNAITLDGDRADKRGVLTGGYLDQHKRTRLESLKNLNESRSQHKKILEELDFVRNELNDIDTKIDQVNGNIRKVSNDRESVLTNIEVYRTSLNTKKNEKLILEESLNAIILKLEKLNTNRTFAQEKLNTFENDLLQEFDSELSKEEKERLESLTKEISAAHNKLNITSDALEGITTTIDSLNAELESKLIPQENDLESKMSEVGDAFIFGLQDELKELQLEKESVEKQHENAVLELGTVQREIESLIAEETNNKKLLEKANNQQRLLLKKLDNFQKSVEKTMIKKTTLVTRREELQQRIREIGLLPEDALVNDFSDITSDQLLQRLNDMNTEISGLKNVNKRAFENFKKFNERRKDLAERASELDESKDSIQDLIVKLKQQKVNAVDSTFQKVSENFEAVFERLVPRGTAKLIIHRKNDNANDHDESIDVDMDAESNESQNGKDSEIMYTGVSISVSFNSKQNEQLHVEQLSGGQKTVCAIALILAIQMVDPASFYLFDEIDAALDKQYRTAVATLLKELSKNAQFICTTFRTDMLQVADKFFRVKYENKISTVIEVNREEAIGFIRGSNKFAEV

T1: Scc1 2xStrepII (S. cerevisiae) (UniProt Q12158)
T1 sequence: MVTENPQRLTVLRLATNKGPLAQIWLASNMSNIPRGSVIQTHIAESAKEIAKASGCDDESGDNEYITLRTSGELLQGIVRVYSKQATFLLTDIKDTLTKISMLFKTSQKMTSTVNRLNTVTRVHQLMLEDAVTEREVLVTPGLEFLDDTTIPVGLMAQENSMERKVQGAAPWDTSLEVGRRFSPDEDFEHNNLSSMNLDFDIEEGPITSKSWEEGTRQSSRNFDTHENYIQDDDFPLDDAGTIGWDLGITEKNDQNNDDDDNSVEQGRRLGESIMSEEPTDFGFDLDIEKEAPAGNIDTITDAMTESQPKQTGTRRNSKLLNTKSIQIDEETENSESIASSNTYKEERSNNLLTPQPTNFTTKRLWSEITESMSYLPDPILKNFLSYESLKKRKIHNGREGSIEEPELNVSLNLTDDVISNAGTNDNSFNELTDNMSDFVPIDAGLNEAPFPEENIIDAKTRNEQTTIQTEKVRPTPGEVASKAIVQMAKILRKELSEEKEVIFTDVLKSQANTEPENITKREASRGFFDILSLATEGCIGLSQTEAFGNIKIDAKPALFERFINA

T2: Scc1Δ152-256 2xStrepII (S. cerevisiae) (UniProt Q12158)
T2 sequence: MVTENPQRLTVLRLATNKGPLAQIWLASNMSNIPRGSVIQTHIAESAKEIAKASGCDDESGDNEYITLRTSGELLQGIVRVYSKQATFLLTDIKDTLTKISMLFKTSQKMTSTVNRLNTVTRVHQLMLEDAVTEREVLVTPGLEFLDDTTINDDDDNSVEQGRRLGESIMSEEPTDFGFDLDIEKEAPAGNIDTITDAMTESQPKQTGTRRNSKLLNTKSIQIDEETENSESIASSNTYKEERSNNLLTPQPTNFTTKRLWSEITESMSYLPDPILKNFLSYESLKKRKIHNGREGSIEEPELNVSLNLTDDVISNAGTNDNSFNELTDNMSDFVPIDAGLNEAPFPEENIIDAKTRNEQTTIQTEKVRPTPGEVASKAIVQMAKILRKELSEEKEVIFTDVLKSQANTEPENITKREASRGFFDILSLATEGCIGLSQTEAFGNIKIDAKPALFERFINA


What was measured:
Test in all cases: co-purification
[1] = biological target: T1, Scc1 2xStrepII (S. cerevisiae)
[2] = biological target: cohesin tetramer (Smc1, Smc3, Scc1, Scc3) (S. cerevisiae) (UniProt P32908+P47037+Q12158+P40541)
[3] = biological target: T2, Scc1Δ152-256 2xStrepII (S. cerevisiae)

binding [1]	binding [2]	binding [3]	Binder
binds	binds	–	Pds5-Flag (protein, UniProt Q04264 1-1277) MAKGAVTKLKFNSPIISTSDQLISTNELLDRLKALHEELASLDQDNTDLTGLDKYRDALVSRKLLKHKDVGIRAFTACCLSDILRLYAPDAPYTDAQLTDIFKLVLSQFEQLGDQENGYHIQQTYLITKLLEYRSIVLLADLPSSNNLLIELFHIFYDPNKSFPARLFNVIGGILGEVISEFDSVPLEVLRLIFNKFLTYNPNEIPEGLNVTSDCGYEVSLILCDTYSNRMSRHLTKYYSEIIHEATNDDNNSRLLTVVVKLHKLVLRLWETVPELINAVIGFIYHELSSENELFRKEATKLIGQILTSYSDLNFVSTHSDTFKAWISKIADISPDVRVEWTESIPQIIATREDISKELNQALAKTFIDSDPRVRRTSVMIFNKVPVTEIWKNITNKAIYTSLLHLAREKHKEVRELCINTMAKFYSNSLNEIERTYQNKEIWEIIDTIPSTLYNLYYINDLNINEQVDSVIFEYLLPFEPDNDKRVHRLLTVLSHFDKKAFTSFFAFNARQIKISFAISKYIDFSKFLNNQESMSSSQGPIVMNKYNQTLQWLASGLSDSTKAIDALETIKQFNDERIFYLLNACVTNDIPFLTFKNCYNELVSKLQTPGLFKKYNISTGASIMPRDIAKVIQILLFRASPIIYNVSNISVLLNLSNNSDAKQLDLKRRILDDISKVNPTLFKDQIRTLKTIIKDLDDPDAEKNDNLSLEEALKTLYKASKTLKDQVDFDDTFFFTKLYDFAVESKPEITKYATKLIALSPKAEETLKKIKIRILPLDLQKDKYFTSHIIVLMEIFKKFPHVLNDDSTDIISYLIKEVLLSNQVVGDSKKEIDWVEDSLLSDTKYSAIGNKVFTLKLFTNKLRSIAPDVPRDELAESFTEKTMKLFFYLIASGGELISEFNKEFYPTPSNYQTKLRCVAGIQVLKLARISNLNNFIKPSDIIKLINLVEDESLPVRKTFLEQLKDYVANELISIKFLPLVFFTAYEPDVELKTTTKIWINFTFGLKSFKKGTIFERALPRLIHAIAHHPDIVGGLDSEGDAYLNALTTAIDYLLFYFDSIAAQENFSLLYYLSERVKNYQDKLVEDEIDEEEGPQKEEAPKKHRPYGQKMYIIGELSQMILLNLKEKKNWQHSAYPGKLNLPSDLFKPFATVQEAQLSFKTYIPESLTEKIQNNIKAKIGRILHTSQTQRQRLQKRLLAHENNESQKKKKKVHHARSQADDEEGDGDRESDSDDDSYSPSNKNETKKGHENIVMKKLRVRKEVDYKDDEDDDIEMT
binds	–	binds	Scc3 (protein, UniProt P40541 1-1150) MTAVRRSTRIRTKSQVIEEDYDDEQNTSAQHVESDKITAKTQHEEEEEQDTGESEESSSEDDYEDQDDDDYVDTATAKRKSRKRKPKSASNTSSKRQKKKPTSAQKSAVSHAPAYHRSKKDQDQYLEIAKDFQPTELFDILSTSEDVSIEELLREWLETYSENRDKFLQEFINLLLNCCGSVARVEDHDVHSNESSNETIGEIQLLFQRQKLHEFYLLISKENKKRKNFKMGPLYQNFAEFMTKLLEVANDLQLLYVESDEDDTQIVTGNLVLDLLTWLSSFSVCKIRCFRYISTLTLYLFQDYLTQQAVNLEKNYLAKLSKQLSLEEKKKRPNNKTLEKLESTIAETQGSKVVIDSIIDNIVKLCFVHRYKDVSDLIRSESMLHLSIWIKNYPEYFLKVTFLKYFGWLLSDNSVSVRLQVTKILPHLIIQNHNSKSTDNSAIRQVFERFKTKILEVAIRDVNLDVRIHSIQVLTEASSLGYLDDSEILIISSLMFDEEFDPFKTSSFNKRSKFLSTVAKFLARVIKEKFDEFIKTHEDLPKEVDGLEVGPVVQVGIFIKILNDSLIYHLKDCAEVDSRTKIRMLTQAAEFLSPYISTHLKTICNLLISDTESNELIQKLQNSANNNSDDEDVDDEELDITPLFPIDRNSTILYLNVFHGLCAGANNPKIQTKDSVKEIVLPLFYDLLNAASIESADILCPLLESFITFSLDDWISIGYETELKKITDKTIKAFMDSTIGNSKVDMKYDIFAKFIHHIHHFEKKELQEKFLNQIATLKIHLKKFLQEKMDPNNSRDDYKDLTCSLYELYINKLTILGRDYPIEVDEELLQLFLNNFVSRIPIMFQDFDDSTAQEINFKMLVLLATWNLEKWREIIEKVRDYENSISKDLRSVWKPIAAIIGRLNTLVISLAATNETFENINSLFYLKWSACTSLMDIIVAIKIFELKLPADATTWRYSMSEQFPFYLHDNASKVLLKIFLYLESLFAKQVDVQLERVADEDANLNDLPETGFFENIETEFLLFTVKLKGLMKLNILDERFASRVALNKEKLGPLFKKIVDDTIMENPEPNKKNIQKAKSNQTQREKAPLQPNSERETDHANTENNDPDIPMTIDLEPIEESSQNNSELAPIEEHPTVVDAIDNSDEITQD
